Laboratory results published in PubChem BioAssay AID493014 (National Center for Advancing Translational Sciences (NCATS), 2011).
The whole screen tested about 340,000 compounds, of which about 170 (0.05%) were called active. The shares of active, inactive and inconclusive entries below differ from those in the screen. Calls follow the shape of the dose curve; as a rule, active = well fitted inhibition curve with a large enough effect in the signal ratio, with a control signal flat (not every such curve was filed as active); inconclusive = small, poorly fitted or top-dose-only effect, or effect the other way, or a change in a side signal; inactive = flat fitted curve, though single readings scatter; the % refers to the signal ratio. Potencies beside an inconclusive call are fits to weak or partial responses and may not hold up.

Assay: qHTS Assay to Find Inhibitors of Chronic Active B-Cell Receptor Signaling;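 as to activity change, negative = inhibition: plate controls were basal doxycycline-induced cells for no effect and cells given 10 µM MG132 for full effect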
Details: ABC-DLBCL IkBa-CBG/CBR reporter, luminescence ratio (green luciferase fused to IkBa over red control in TMD8 lymphoma cells), 4 h; activity change, negative = inhibition: at 46.1 µM (top of the series) unless noted
Method in brief: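 TMD8 ABC-DLBCL cells carrying doxycycline-inducible green luciferase fused to IkappaBalpha plus unfused red luciferase were exposed to compounds (up to 46 uM) for 4 hrs at 37C. Activity came from the overlap-corrected green/red luminescence ratio.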
Potency is read from the fitted curve at half-maximal effect.

Row | SMILES | activity change, negative = inhibition | Potency
1 | COc1ccc(S(=O)(=O)N2CCN(C(C)C(=O)Nc3ccc(C(C)C)cc3)CC2)cc1 (centres undefined) | inconclusive: 5.89% | –
2 | CCOC(=O)N1CCc2c(sc(NCc3ccc(N(C)C)cc3)c2C(=O)Nc2ccc(OC)cc2)C1 | inactive: -2.5% | –
3 | O=C1NN(c2ccccc2)C(=O)/C1=C\c1cccc(OC(=O)c2cccs2)c1 | – | inconclusive: 23.1 µM [falling, single point]
4 | COc1cc(C(=O)NCCc2ccc(F)cc2)ccc1OCC(=O)N1CCOCC1 | inconclusive: -82.1% | –
5 | CCOc1ncccc1C(=O)OCc1ccc(Cl)cc1 | inconclusive: 11.5% | –
6 | CSc1ccc(CCNC(=O)c2ccc(CS(=O)(=O)c3ccc(Br)cc3)o2)cc1 | – | inconclusive: 35.5 µM [falling, single point]
7 | CCCOC(c1ccccc1)(c1ccc(C(F)(F)F)cc1)C(Oc1nc(C)cc(C)n1)C(=O)O (centres undefined) | inconclusive: -15.4% | –
8 | O=C(O)c1ccc(-n2cccc2/C=C2/NC(=O)N(c3ccccc3)C2=O)cc1 | inconclusive: 7.6% | –
9 | CCCOc1ccc(C(=O)Nc2cccnc2)cc1 | inactive: -14.3% | –
10 | COc1cc(/C=C/C(=O)OCc2cn3cc(Cl)ccc3n2)ccc1O | inactive: -13.9% | –
11 | COc1ccc2oc(=O)c(-c3nc(C)cs3)cc2c1 | – | inconclusive: 1.78 µM [activator, full curve, poor fit]
12 | CC1CCCC(NC(=S)NC(=O)c2ccccc2Br)C1C (centres undefined) | inconclusive: 4.36% | –
13 | Cc1cccc(C)c1NC(=O)CN1C(=O)NC(C)(C2CC2)C1=O (centres undefined) | inactive: -0.454% | –
14 | CCOC(=O)c1c(-c2ccc(C)cc2)cn2ccccc12 | inconclusive: 17.3% | –
15 | O=c1c2cc(N3CCOCC3)ccc2[nH]c(=S)n1Cc1ccco1 | – | inconclusive: 29.1 µM [falling, single point]
16 | Cc1ccc2c(C(=O)CN3CCSCC3)c(C)[nH]c2c1 | inconclusive: 0.275% | –
17 | Cc1c(NC(=O)c2ccc(C(C)(C)C)cc2)cccc1[N+](=O)[O-] | – | inconclusive: 25.9 µM [falling, single point]
18 | OC(CN1CCCCC1)Cn1c2ccccc2c2cc(Br)ccc21 (centres undefined) | inconclusive: -11.6% | –
19 | O=C(Nc1ccc2nsnc2c1)c1cccs1 | inconclusive: -13.9% | –
20 | c1ccc(-c2cnn3c(-c4ccccc4)c(-c4ccccc4)nc3n2)cc1 | – | inconclusive: 5.17 µM [falling, partial curve]
21 | Cc1ccc(Cn2c(=N)n(CC(O)COc3ccccc3)c3ccccc32)cc1 (centres undefined) | inconclusive: -17.4% | –
22 | CSc1nc2ccccc2n1Cc1cccc(F)c1 | inconclusive: 6.7% | –
23 | Cc1cc(=O)oc2cc(OCC3CC(c4ccccc4)=NO3)ccc12 (centres undefined) | inconclusive: -0.476% | –
24 | CC(c1cccs1)N(Cc1ccco1)C(=S)Nc1ccccc1Cl (centres undefined) | – | inconclusive: 15.8 µM [falling, partial curve]
25 | CCC(C(=O)Nc1cc(OC)c(NC(=O)c2ccccc2)cc1OC)c1ccccc1 (centres undefined) | inactive: 7.78% | –
26 | N#Cc1c(NC(=O)CSc2nnc(-c3ccccc3)o2)sc2c1CCCC2 | – | inconclusive: 0.184 µM [rising, full curve]
27 | CCCOc1ccc(C(=O)N2CCN(c3ccc(NC(=O)CC)cc3Cl)CC2)cc1 | inconclusive: -4.63% | –

Row | SMILES | activity change, negative = inhibition | Potency
28 | O=C(NCCC(=O)N(Cc1ccco1)Cc1cccs1)c1ccccc1Cl | inconclusive: 0.864% | –
29 | O=[N+]([O-])c1cc(C=Nc2cccc3c(O)cccc23)ccc1Cl | – | inconclusive: 35.5 µM [falling, single point]
30 | O=C(O)c1cc2c(=O)c3ccccc3oc2nc1C(F)(F)F | inactive: 5.02% | –
31 | COC(=O)c1cc(OC)c(OC)cc1NC(=O)CCc1ccc(C)o1 | inactive: -0.403% | –
32 | Cc1c(NS(=O)(=O)c2ccc3c(c2)Cc2ccccc2-3)c(=O)n(-c2ccccc2)n1C | inactive: -1.48% | –
33 | COc1ccc(CCNC(=O)COc2ccc(S(=O)(=O)NC3CCCCC3)cc2Cl)cc1OC | inconclusive: -6.23% | –
34 | COc1ccc(NC(=O)c2nc[nH]c2C(=O)N2CCN(c3ccccc3)CC2)cc1 | inconclusive: -0.496% | –
35 | OC(CN1CCN(c2cccc(Cl)c2)CC1)c1ccccc1 (centres undefined) | inconclusive: 0.704% | –
36 | COc1ccc2c3c1O[C@H]1C[C@@H](O)C=C[C@@]31CCN(C)C2 | – | inconclusive: 17.8 µM [falling, single point]
37 | COc1ccc(NC(=O)c2cc(-c3ccccc3O)n[nH]2)cc1Cl | – | inconclusive: 14.1 µM [falling, partial curve, poor fit]
38 | CCOc1ccc(NC(=O)c2c(NCc3sccc3C)sc3c2CCCCC3)cc1 | – | inconclusive: 17.8 µM [falling, partial curve]
39 | C[C@H](CO)N1C[C@H](C)[C@@H](CN(C)C(=O)Nc2ccc(C(F)(F)F)cc2)Oc2c(NS(=O)(=O)c3ccc(F)cc3)cccc2C1=O | inactive: 1.77% | –
40 | O=C(c1ccc(Cl)cc1)c1c[nH]c(C(=O)NNc2cccc(Cl)n2)c1 | inconclusive: 9.3% | –
41 | Cc1cc(OC(C)C)c2c(-c3ccccc3)cc(=O)oc2c1 | inconclusive: -8.04% | –
42 | COc1ccc(OC)c(C2=Nn3c(nnc3-c3cc(C)[nH]n3)SC2)c1 | – | inconclusive: 11.2 µM [falling, partial curve]
43 | C/C(=N/NC(=O)c1ccc2c(c1)OCO2)c1ccc(NC(=O)c2ccc(F)cc2)cc1 | inconclusive: -18.2% | –
44 | CC(C)(C)C1CCc2sc(C(=O)NNC(=O)CCl)cc2C1 (centres undefined) | – | inconclusive: 35.5 µM [rising, single point]
45 | CCN1CCN(C(=S)NC(CC(=O)c2ccccc2)c2ccccc2)CC1 (centres undefined) | inconclusive: 2.7% | –
46 | CCOC(=O)c1c(-c2ccccc2Cl)csc1NC(=O)CSc1nc(C)cc(=O)[nH]1 | inconclusive: -19.6% | –
47 | O=C(O)c1ccccc1C(=O)Nc1ccc(Br)c(C(F)(F)F)c1 | inactive: -15.8% | –
48 | O=C1Nc2cc(C(=O)NCCCN3CCCC3)ccc2S/C1=C/c1ccccc1F | inactive: -2.07% | –
49 | CCCOc1ccccc1N/C(=N/c1nc(C)cc(C)n1)NC(=O)COc1ccc(OC)cc1 | inconclusive: -19.5% | –
50 | CC1CCN(CCC(=O)Nc2nccs2)CC1 | – | inconclusive: 15.8 µM [falling, partial curve, poor fit]
51 | COc1ccc(CNC(=O)c2c(Nc3ccc(OC)cc3OC)sc(C(=O)c3ccc(Cl)cc3)c2N)cc1 | – | inconclusive: 1.26 µM [falling, full curve, poor fit]
52 | CCc1ccccc1N(C(=O)c1snc(C(N)=O)c1N)C(C(=O)NCC1CCCO1)c1c[nH]c2ccccc12 (centres undefined) | inconclusive: -13% | –
53 | O=C(c1ccccc1F)N1CCN(CC2CC3C=CC2C3)CC1 (centres undefined) | inconclusive: -0.681% | –
54 | COc1ccccc1CNC(=O)CN1C(=O)NC(c2ccccc2)(c2ccc(C)c(C)c2)C1=O (centres undefined) | inconclusive: -15.9% | –

Looked up by compound from above, 5 records:
Row | SMILES | activity change, negative = inhibition | Potency
46 | CCOC(=O)c1c(-c2ccccc2Cl)csc1NC(=O)CSc1nc(C)cc(=O)[nH]1 | inconclusive: -19.6% | –
16 | Cc1ccc2c(C(=O)CN3CCSCC3)c(C)[nH]c2c1 | inconclusive: 0.275% | –
45 | CCN1CCN(C(=S)NC(CC(=O)c2ccccc2)c2ccccc2)CC1 (centres undefined) | inconclusive: 2.7% | –
54 | COc1ccccc1CNC(=O)CN1C(=O)NC(c2ccccc2)(c2ccc(C)c(C)c2)C1=O (centres undefined) | inconclusive: -15.9% | –
14 | CCOC(=O)c1c(-c2ccc(C)cc2)cn2ccccc12 | inconclusive: 17.3% | –

(listing goes on)

Row | SMILES | activity change, negative = inhibition | Potency
55 | O=C(NC1CCN(Cc2ccc(Cl)cc2Cl)CC1)c1ccccc1 | inactive: -4.64% | –
57 | O=C(COc1ccccc1[N+](=O)[O-])N1CCN(c2ccccn2)CC1 | – | inconclusive: 25.9 µM [falling, single point]
58 | COc1ccc(C(=O)Oc2ccc(C(=S)N3CCCC3)cc2)cc1OC | inactive: 1.62% | –
59 | Cc1cccc(N2CCN(C(=O)c3ccc4c(c3)NC(=O)C(CSCc3ccc(F)cc3)N4)CC2C)c1 (centres undefined) | – | inconclusive: 35.5 µM [falling, single point]
60 | Nc1nonc1C(=O)NCCNCc1ccccc1OCc1ccc(F)cc1 | inconclusive: -5.43% | –
61 | CCOc1cc(/C=N/NC(=O)c2ccc(CN3CCOCC3)cc2)ccc1OCc1ccccc1 | inactive: 5.22% | –
62 | Cc1cccc(N/N=C/c2ccccc2O)c1 | inconclusive: 15% | –
63 | O=C(Nc1ncc(Cc2cccc(C(F)(F)F)c2)s1)C1CCCO1 (centres undefined) | inconclusive: -3.3% | –
64 | Cc1c(C(=O)NNC(=S)NCc2ccc(Cl)cc2)oc2ccccc12 | inconclusive: -0.24% | –
65 | Cc1ccc(NC(=O)c2oc3ccc(S(=O)(=O)N4CCCCC4)cc3c2C)cc1C | inconclusive: 5.19% | –
66 | Cc1cccc(C(=O)OCC(=O)c2ccc(CC(=O)N3CCOCC3)s2)c1C | inconclusive: -29.3% | –
67 | Cc1nc2c(Cl)cccc2[nH]1 | inconclusive: 13.2% | –
68 | Cc1cc(-c2c(C)[nH]n(-c3ccc(Cl)cc3)c2=O)n[nH]1 | inactive: -2.84% | –
69 | Cc1ccc(OCC(=O)N(Cc2cccs2)C2CCS(=O)(=O)C2)cc1C (centres undefined) | – | inconclusive: 7.94 µM [falling, partial curve]
70 | CCCc1cc(=O)[nH]c(SCc2ccccc2)n1 | – | inconclusive: 29.1 µM [falling, single point]
71 | CCOC(=O)NC(=O)/C(C#N)=N\Nc1cccc(OC)c1 | inconclusive: 11.3% | –
72 | COc1cccc(/C=N/NC(=O)c2nc(-c3ccccc3)cc(-c3ccccc3)n2)c1O | – | inconclusive: 0.366 µM [falling, full curve, poor fit]
73 | Cc1nn(-c2ccccc2)c2ncc(C(=O)c3cc(Cl)ccc3O)cc12 | inactive: 15.4% | –
74 | CN(c1ccccc1)S(=O)(=O)c1cccc(C(=O)OCC(=O)NCc2ccco2)c1 | – | inconclusive: 0.794 µM [rising, full curve]
75 | CCOC(=O)Cc1csc(NS(=O)(=O)c2ccc(F)cc2)n1 | inconclusive: -19.2% | –
76 | CCCN(C(=O)c1ccc(S(=O)(=O)N2CCCC2)cc1)C1CCS(=O)(=O)C1 (centres undefined) | inactive: -1.3% | –
77 | CCc1cccc2c(/C=N/NC(=O)c3cccc(S(=O)(=O)Nc4ccccc4Cl)c3)c[nH]c12 | inconclusive: -5.43% | –
78 | CN(C(=O)COc1ccc(Oc2ccccc2)cc1)C1CCS(=O)(=O)C1 (centres undefined) | inconclusive: -9.35% | –
79 | CCC(C)(C)n1nnnc1C(c1cc2ccc(OC)cc2[nH]c1=O)N1CCc2ccccc21 (centres undefined) | – | inconclusive: 35.5 µM [falling, single point]
